Taken from: PubChem BioAssay AID1259405 (NCATS, 2018)

Screen: 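Mouse-designed siRNAs used to find CHO productivity engineering targets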 (primary screen)
System: Chinese hamster CHO-K1 ovary cells with stable secreted eGFP expression
Knock-down reagent: single siRNA against mouse genes, 0.8 pmol siRNA per well (2 µl of 400 nM stock)
Time to read-out: 3 days
Read-out: 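Per-well intracellular GFP measured by laser scanning cytometry, plus viability from ATP luminescence, each relative to plate median of non-targeting control wells, in %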
Scale: GFP, % of control: higher = more GFP per well, higher productivity; viability (ATP), % of control: higher = more viable cells (more ATP)
Active means: 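Called active when intracellular GFP, relative to negative control, is at or above 120%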
Shown is one part, drawn at random, of about 50,000 reagents. Over the whole deposit, about 4,000 (8%) were called active. 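Mouse siRNA library applied to hamster cells; one well for each siRNA.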 Reagents against one gene are numbered here.

Adra1d #1
- GFP, % of control: 56.4
- viability (ATP), % of control: 79.8
- outcome: inactive

Adra1d #2
- GFP, % of control: 68.9
- viability (ATP), % of control: 69.5
- outcome: inactive

Adra1d #3
- GFP, % of control: 46.7
- viability (ATP), % of control: 37.6
- outcome: inactive

Agpat4 #1
- GFP, % of control: 125
- viability (ATP), % of control: 82.3
- outcome: active

Agpat4 #2
- GFP, % of control: 62.9
- viability (ATP), % of control: 67.2
- outcome: inactive

Agpat4 #3
- GFP, % of control: 69.8
- viability (ATP), % of control: 51.5
- outcome: inactive

Samd9l #1
- GFP, % of control: 15.2
- viability (ATP), % of control: 36.5
- outcome: inactive

Samd9l #2
- GFP, % of control: 80.5
- viability (ATP), % of control: 67.1
- outcome: inactive

Samd9l #3
- GFP, % of control: 80.3
- viability (ATP), % of control: 84.5
- outcome: inactive

Sparc #1
- GFP, % of control: 70.9
- viability (ATP), % of control: 41.4
- outcome: inactive

Sparc #2
- GFP, % of control: 93
- viability (ATP), % of control: 84.7
- outcome: inactive

Sparc #3
- GFP, % of control: 82.6
- viability (ATP), % of control: 78
- outcome: inactive

Cxcl17 #1
- GFP, % of control: 86.5
- viability (ATP), % of control: 91
- outcome: inactive

Cxcl17 #2
- GFP, % of control: 67.1
- viability (ATP), % of control: 56.6
- outcome: inactive

Cxcl17 #3
- GFP, % of control: 143
- viability (ATP), % of control: 159
- outcome: active

Bri3 #1
- GFP, % of control: 78.4
- viability (ATP), % of control: 73.6
- outcome: inactive

Bri3 #2
- GFP, % of control: 102
- viability (ATP), % of control: 91.9
- outcome: inactive

Bri3 #3
- GFP, % of control: 134
- viability (ATP), % of control: 144
- outcome: active

Cox7b2 #1
- GFP, % of control: 51.7
- viability (ATP), % of control: 52.6
- outcome: inactive

Cox7b2 #2
- GFP, % of control: 129
- viability (ATP), % of control: 68.5
- outcome: active

Cox7b2 #3
- GFP, % of control: 110
- viability (ATP), % of control: 100
- outcome: inactive

Akr1c19 #1
- GFP, % of control: 89.5
- viability (ATP), % of control: 65.4
- outcome: inactive

Akr1c19 #2
- GFP, % of control: 177
- viability (ATP), % of control: 51
- outcome: active

Akr1c19 #3
- GFP, % of control: 75.8
- viability (ATP), % of control: 81.6
- outcome: inactive

Prpf31 #1
- GFP, % of control: 50.8
- viability (ATP), % of control: 80.9
- outcome: inactive

Prpf31 #2
- GFP, % of control: 64.1
- viability (ATP), % of control: 80.2
- outcome: inactive

Prpf31 #3
- GFP, % of control: 86
- viability (ATP), % of control: 67.5
- outcome: inactive
